PubChem BioAssay AID1224830 – NIAID, 2016

- Aim: 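Genes whose knock-down alters the TNF-alpha reporter response to LPS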 (primary screen)
- System: human THP-1 monocytic leukaemia cells, TNF dual-luciferase reporter clone, PMA-differentiated to macrophage-like cells
- Knock-down reagent: siRNA pool against human genes, 50 nM
- Duration: LPS for 4 h, given about 3 days after siRNA transfection
- Challenge: bacterial LPS (TLR4 ligand), 10 ng/ml
- Measurement: 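Ratio of firefly to renilla light, scaled to the plate median and expressed as a robust z-score per replicate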
- Scale: TNF reporter robust z-score: higher = stronger TNF reporter response to LPS
- Call rule: 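Each well counts as active if its z-score is over 2.8 or under -1.5; controls are left without a call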
The whole screen tested about 18,000 reagents; this is an unselected part. About 2,900 of all reagents (16%) count as active. 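Calls are made per well; low scores hint the gene aids the LPS response, high scores that it dampens it.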 Repeated entries: four replicate wells of each siRNA pool.

gene	TNF reporter robust z-score	Call
KLRG2 (GeneID 346689)	-0.73	inactive
KLRG2 (GeneID 346689)	0.28	inactive
KLRG2 (GeneID 346689)	-0.27	inactive
KLRG2 (GeneID 346689)	0.09	inactive
FAM13C (GeneID 220965)	0.26	inactive
FAM13C (GeneID 220965)	0.92	inactive
FAM13C (GeneID 220965)	0.7	inactive
FAM13C (GeneID 220965)	0.56	inactive
PYCR1 (GeneID 5831)	0.36	inactive
PYCR1 (GeneID 5831)	0.02	inactive
PYCR1 (GeneID 5831)	-0.41	inactive
PYCR1 (GeneID 5831)	-0.92	inactive
ANXA9 (GeneID 8416)	2.83	active
ANXA9 (GeneID 8416)	3.44	active
ANXA9 (GeneID 8416)	5.21	active
ANXA9 (GeneID 8416)	8.24	active
IL1RAP (GeneID 3556)	0.04	inactive
IL1RAP (GeneID 3556)	0.86	inactive
IL1RAP (GeneID 3556)	-0.18	inactive
IL1RAP (GeneID 3556)	0.1	inactive
SRSF1 (GeneID 6426)	-1.54	active
SRSF1 (GeneID 6426)	-0.69	inactive
SRSF1 (GeneID 6426)	-1.58	active
SRSF1 (GeneID 6426)	-1.37	inactive
KLC3 (GeneID 147700)	-0.35	inactive
KLC3 (GeneID 147700)	-0.1	inactive
KLC3 (GeneID 147700)	0.17	inactive
KLC3 (GeneID 147700)	-0.79	inactive
C1orf35 (GeneID 79169)	-0.46	inactive
C1orf35 (GeneID 79169)	0.37	inactive
C1orf35 (GeneID 79169)	0.63	inactive
C1orf35 (GeneID 79169)	0.01	inactive
ELF1 (GeneID 1997)	-0.7	inactive
ELF1 (GeneID 1997)	-0.11	inactive
ELF1 (GeneID 1997)	-1.05	inactive
ELF1 (GeneID 1997)	0.56	inactive
VPS13B (GeneID 157680)	1.55	inactive
VPS13B (GeneID 157680)	1.14	inactive
VPS13B (GeneID 157680)	1.67	inactive
VPS13B (GeneID 157680)	2.55	inactive
SCYL2 (GeneID 55681)	0.32	inactive
SCYL2 (GeneID 55681)	0.59	inactive
SCYL2 (GeneID 55681)	0.76	inactive
SCYL2 (GeneID 55681)	1.36	inactive
AVPI1 (GeneID 60370)	1.92	inactive
AVPI1 (GeneID 60370)	1.04	inactive
AVPI1 (GeneID 60370)	0.24	inactive
AVPI1 (GeneID 60370)	0.71	inactive

Records above whose target name starts with I or i:
gene	TNF reporter robust z-score	Call
IL1RAP (GeneID 3556)	0.04	inactive
IL1RAP (GeneID 3556)	0.86	inactive
IL1RAP (GeneID 3556)	-0.18	inactive
IL1RAP (GeneID 3556)	0.1	inactive
